Measured data: PubChem BioAssay AID1259260 (Sanger Institute, 2017)

- Aim: 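Kinome knock-down with three anchor drugs to find synergy partners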 (primary screen)
- System: human NCI-H716 colorectal cancer cells
- Reagent: siRNA pool against human genes
- Challenge: anchor drugs BYL719 (alpelisib) 1 µM, cetuximab 5 µg/ml or trametinib 10 nM, each at a dose chosen to harm viability only mildly; DMSO vehicle for the knock-down-alone arm
- Measurement: 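Replicate-averaged viability relative to a non-targeting pool, a robust z-score for knock-down alone, and a synergy score per anchor drug versus each agent alone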
- Reading the numbers: viability robust z-score, siRNA alone: higher = more surviving cells; below -3 called essential; viability vs control, no drug: higher = more surviving cells; synergy score with BYL719 and synergy score with cetuximab and synergy score with trametinib: higher = stronger synergy (synthetic lethality) with drug
- Call rule: 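a knock-down counts as essential if its no-drug robust z-score is lower than -3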
- Meaning of the calls: active = essential (knock-down alone lowers viability); inactive = no essential effect
This is a random part of 794 deposited reagents. Over the whole deposit, 13 (1.6%) got an active call. 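Calls reflect only knock-down without drug; synergy above 0.15 was grouped apart and does not change the call.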 Entries without a mark were called inactive. Reagents against one gene are numbered here. No viability above 1 is reported: the scale is capped. Not given: the amount of reagent, the time to read-out.

no.	gene knocked down	pool no.	viability robust z-score, siRNA alone	viability vs control, no drug (fraction of control)	synergy score with BYL719	synergy score with cetuximab	synergy score with trametinib
1	CLK2	1	-0.0246	0.935	-0.113	-0.0606	-0.0751
2	HK3	1	0.602	1	-0.121	-0.1	0.0595
3	FXR1	1	0.277	0.966	-0.0542	0.105	-0.0318
4	BCR	1	-0.505	0.885	-0.219	-0.204	0.056
5	WNK4	1	0.602	1	-0.171	-0.1	0.148
6	PRKCG	1	0.602	1	-0.253	-0.1	-0.102
7	FYN	1	0.602	1	-0.118	0.0261	0.173
8	MAP2K3	1	0.602	1	-0.0602	-0.1	0.0439
9	NRAS	1	0.602	1	-0.15	-0.0545	0.144
10	CAMK2N1	1	0.312	0.97	-0.15	0.0515	-0.0204
11	CAMK2D	1	0.602	1	-0.218	-0.1	0.00446
12	STK17B	1	-0.373	0.899	-0.0845	-0.0169	0.233
13	IKBKB	1	0.602	1	-0.1	-0.1	0.192
14	TNK2	1	0.277	0.966	-0.0108	-0.102	0.084
15	PRKD3	1	-0.279	0.908	-0.138	-0.0134	0.193
16	PDXK	1	0.602	1	-0.0693	-0.1	-0.00319
17	BTK	1	0.413	0.98	-0.044	0.024	-0.0572
18	PIK3C3	1	0.423	0.981	-0.158	-0.117	-0.0511
19	MED12	1	-1.33	0.8	-0.0329	-0.11	0.00123
20	MVK	1	0.602	1	-0.0394	-0.00753	0.0536
21	PIK3C2A	1	0.602	1	-0.283	-0.1	0.137
22	MAP3K14	1	-0.118	0.925	-0.0383	-0.168	-0.0291
23	NR2F2	1	0.103	0.948	0.0888	-0.0824	0.373
24	SOX9	1	0.602	1	-0.101	-0.0706	-0.112
25	ASPM	1	-0.332	0.903	-0.13	-0.108	-0.17
26	INSR	1	-1.98	0.732	-0.0779	-0.253	-0.0243
27	CDK17	1	0.602	1	-0.248	-0.1	-0.116
28	PFKL	1	0.602	1	-0.283	-0.1	-0.255
29	EPHB6	1	0.602	1	-0.283	-0.1	-0.131
30	LTK	1	-0.253	0.911	-0.163	-0.158	0.0535
31	EPHA2	1	0.602	1	-0.283	-0.1	-0.0724
32	FOXP1	1	0.602	1	0.158	-0.075	0.332
33	RPS6KB2	1	0.602	1	-0.14	-0.1	-0.0545
34	NEK3	1	-1.57	0.774	-0.0679	0.0985	-0.046
35	PFKM	1	0.602	1	-0.283	-0.1	0.0212
36	GUK1	1	-1.83	0.747	-0.0342	-0.0132	0.0627
37	PDK3	1	0.492	0.989	-0.115	-0.111	0.0475
38	RAF1	1	0.602	1	-0.0218	-0.1	0.0485
39	PRKAR1B	1	-1.72	0.759	-0.0637	-0.122	0.0155
40	CHEK2	1	0.602	1	-0.206	-0.1	0.0153
41	TAF1	1	0.602	1	-0.0801	-0.1	0.00712
42	CSNK2B	1	0.602	1	-0.283	-0.1	-0.206
43	AURKC	1	-0.543	0.881	-0.0757	0.0566	-0.0684
44	PRKCH	1	0.602	1	-0.0488	-0.1	-0.141
45	FGFRL1	1	0.602	1	0.0303	-0.1	0.313
46	RIPK3	1	0.602	1	-0.283	-0.1	-0.151
47	OXSR1	1	0.602	1	0	-0.1	0.17
48	PKM	1	0.602	1	-0.037	-0.0102	0.0704
49	BRD4	1	-0.435	0.892	-0.193	0.0243	0.0391
50	PRKCI	1	0.602	1	-0.0319	-0.0917	0.0785
51	NTRK3	1	0.602	1	-0.173	-0.1	-0.167
52	CUL1	1	-0.454	0.89	-0.221	-0.123	-0.0794
53	TESK1	1	0.602	1	-0.261	-0.1	0.0797
54	EIF2AK3	1	-1.06	0.827	-0.145	-0.146	0.138
55	IP6K3	1	0.113	0.949	-0.144	-0.146	0.173
56	PACSIN1	1	0.602	1	-0.227	-0.1	0.0324
57	CERT1	1	0.602	1	-0.283	-0.1	0.151
58	DAPK2	1	0.602	1	-0.117	-0.1	0.129
59	LMTK1	1	0.602	1	-0.114	-0.1	0.155
60	MAST2	1	-0.077	0.929	-0.195	0.0167	0.0579
61	PRKD2	1	0.602	1	-0.1	-0.1	0.0244
62	PTEN	1	0.602	1	-0.133	-0.092	0.0371
63	ILK	1	0.602	1	-0.209	-0.0964	0.111
64	ILK	2	0.602	1	-0.179	-0.1	-0.0382

No new results follow: 5 of the entries above.
no.	gene knocked down	pool no.	viability robust z-score, siRNA alone	viability vs control, no drug (fraction of control)	synergy score with BYL719	synergy score with cetuximab	synergy score with trametinib
42	CSNK2B	1	0.602	1	-0.283	-0.1	-0.206
43	AURKC	1	-0.543	0.881	-0.0757	0.0566	-0.0684
44	PRKCH	1	0.602	1	-0.0488	-0.1	-0.141
45	FGFRL1	1	0.602	1	0.0303	-0.1	0.313
46	RIPK3	1	0.602	1	-0.283	-0.1	-0.151
